PubChem BioAssay AID504793, Drosophila RNAi Screening Center, 2011
The screen tested about 23,000 reagents; shown is an unselected part of those that have a named target and a result. In the full data, 62 (0.27%) were called active. 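Calls come from follow-up tests whose scores are not deposited, so confirmed genes may have low counts here; counts are not normalised per plate.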 The raw values are shown without normalisation. Unmarked entries are inactive. Names joined by + are all predicted targets of the reagent.

- Aim: 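Genes required for cells to halt at G2/M after double-strand DNA breaks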 (primary screen)
- System: Drosophila S2R+ cells
- Reagents: long dsRNA against Drosophila genes, about 0.25 µg dsRNA per well
- Timing: 4 days of dsRNA, then 4 hours of drug before read-out
- Challenge: doxorubicin 0.5 µM for 4 hours to cause double-strand breaks, in cells also given a low, harmless dose of dsRNA against nbs to sensitise the assay
- Measurement: 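Mitotic index as the number of phospho-histone H3-positive cells in each well following doxorubicin, given as raw counts without normalisation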
- Direction: mitotic cells: higher = more cells in mitosis, weaker G2 arrest
- Active means: 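Genes are called active only when high mitotic counts were reproduced with independent dsRNAs and mitosis was checked for delay without damage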
- Meaning of the calls: active = confirmed in follow-up tests; inactive = not confirmed

target gene | DRSC id | mitotic cells, replicate 1
U3-55K (U3 small nuclear riboprotein factor 55K) | DRSC05982 | 3
U3-55K (U3 small nuclear riboprotein factor 55K) | DRSC29090 | 8
Npc2b (Niemann-Pick type C-2b) | DRSC15464 | 2
CG1674 | DRSC17142 | 18
CG1674 | DRSC29516 | 6
CG10505 | DRSC04075 | 8
CG7006 | DRSC16169 | 11
CG12773 | DRSC18580 | 3
CG12773 | DRSC24900 | 1
Hs6st (Heparan sulfate 6-O-sulfotransferase) | DRSC14348 | 13
Hs6st (Heparan sulfate 6-O-sulfotransferase) | DRSC15182 | 10
Hs6st (Heparan sulfate 6-O-sulfotransferase) | DRSC15581 | 17
Hs6st (Heparan sulfate 6-O-sulfotransferase) | DRSC21732 | 13
Or22b (Odorant receptor 22b) | DRSC00765 | 3
hydra | DRSC20497 | 3
LUBEL (Linear Ubiquitin E3 ligase) | DRSC02141 | 2
LUBEL (Linear Ubiquitin E3 ligase) | DRSC28105 | 6
ncm (nucampholin) | DRSC02179 | 4
ncm (nucampholin) | DRSC29504 | 2
CG11674 | DRSC19414 | 4
CG3597 | DRSC00617 | 4
CG3597 | DRSC24376 | 6
Mayo | DRSC14300 | 6
Nplp1 (Neuropeptide-like precursor 1) | DRSC04370 | 3
serp (serpentine) | DRSC11035 | 8
serp (serpentine) | DRSC11036 | 5
CG13796 + CG31904 | DRSC22161 | 10
alpha-Man-IIb (alpha-Mannosidase class II b) | DRSC16898 | 9
alpha-Man-IIb (alpha-Mannosidase class II b) | DRSC24186 | 4
bark (bark beetle) | DRSC00635 | 7
bark (bark beetle) | DRSC27011 | 3
Rsph3 (Radial spoke head protein 3) | DRSC09696 | 4
Rsph3 (Radial spoke head protein 3) | DRSC10211 | 8
Rsph3 (Radial spoke head protein 3) | DRSC26917 | 5
Tbcd (Tubulin-binding cofactor D) | DRSC00273 | 1
Atf6 | DRSC04743 | 10
Atf6 | DRSC04889 | 6
Atf6 | DRSC28936 | 6
CG14606 | DRSC12550 | 4
CG43394 | DRSC01013 | 6
CG43394 | DRSC28255 | 1
CG7945 + yellow-k | DRSC10851 | 4
CG18586 | DRSC10325 | 2
Ndc1 (Nuclear division cycle 1) | DRSC15895 | 7
CG31205 | DRSC13438 | 21
CG31205 | DRSC26824 | 15
Mal-A5 (Maltase A5) | DRSC07232 | 5
Mal-A5 (Maltase A5) | DRSC29506 | 8
Lamp1 | DRSC03727 | 9
dsd (distracted) | DRSC13829 | 10
dsd (distracted) | DRSC15850 | 6
GMF (Glia maturation factor) | DRSC01928 | 7
fs(2)ltoPP43 (female sterile (2) ltoPP43) | DRSC02067 | 7
fs(2)ltoPP43 (female sterile (2) ltoPP43) | DRSC24493 | 6
alien + CG17906 | DRSC02641 | 2
CecA2 (Cecropin A2) | DRSC16604 | 14
E(var)3-9 (Enhancer of variegation 3-9) | DRSC23242 | 2
E(var)3-9 (Enhancer of variegation 3-9) | DRSC29480 | 6
MED4 (Mediator complex subunit 4) | DRSC11014 | 5
MED4 (Mediator complex subunit 4) | DRSC25135 | 25 (active)
CtsF (Cathepsin F) | DRSC12056 | 8
CtsF (Cathepsin F) | DRSC12195 | 3
CtsF (Cathepsin F) | DRSC12196 | 4
CG13908 (retired record) | DRSC08378 | 9
CG13908 (retired record) | DRSC27241 | 2
CG14556 | DRSC14899 | 6
CG7848 | DRSC07050 | 4
CkIIalpha-i1 (CKII-alpha subunit interactor-1) | DRSC11115 | 4
conu (conundrum) | DRSC07810 | 4
Vps28 (Vacuolar protein sorting 28) | DRSC06168 | 2
mute (muscle wasted) | DRSC06562 | 7
mute (muscle wasted) | DRSC22931 | 16
mute (muscle wasted) | DRSC29848 | 15
CG11247 | DRSC11643 | 11
CG11247 | DRSC21901 | 21
CG11247 | DRSC26558 | 10
CG11068 | DRSC19369 | 6
CG17508 | DRSC07771 | 4
TrpA1 (Transient receptor potential cation channel A1) | DRSC10544 | 1
CG15741 | DRSC19707 | 14
CG15741 | DRSC24220 | 6
CG32187 | DRSC10521 | 3
Npc2e (Niemann-Pick type C-2e) | DRSC15522 | 6
Npc2e (Niemann-Pick type C-2e) | DRSC22338 | 6
CG2641 | DRSC15441 | 4
Dup99B (Ductus ejaculatorius peptide 99B) | DRSC22877 | 9
Dup99B (Ductus ejaculatorius peptide 99B) | DRSC29633 | 3
Dhdds (Dehydrodolichyl diphosphate synthase subunit) | DRSC17756 | 8
Dhdds (Dehydrodolichyl diphosphate synthase subunit) | DRSC29011 | 6
CG10097 + CG10096 | DRSC14189 | 5
CG10097 + CG10096 | DRSC14190 | 3
PpN58A (Protein phosphatase N at 58A) | DRSC04642 | 8
PpN58A (Protein phosphatase N at 58A) | DRSC28243 | 5
CG9498 | DRSC03235 | 8
out (outsiders) | DRSC19347 | 7
out (outsiders) | DRSC28913 | 12
Polr1C (RNA polymerase I and III subunit C) | DRSC02719 | 9
Nup75 (Nucleoporin 75kD) | DRSC06947 | 10
Nup75 (Nucleoporin 75kD) | DRSC28056 | 4
CG31778 | DRSC00283 | 9
Irp-1B (Iron regulatory protein 1B) | DRSC16720 | 5
Irp-1B (Iron regulatory protein 1B) | DRSC24261 | 7
YME1L (YME1 like ATPase) | DRSC04378 | 9
CanA-14F (Calcineurin A at 14F) | DRSC23296 | 11
fun (retired record) | DRSC12300 | 7
ix (intersex) | DRSC06325 | 6
ix (intersex) | DRSC25236 | 11
Art4 (Arginine methyltransferase 4) | DRSC15779 | 4
CG17026 | DRSC10237 | 4
CG17026 | DRSC24059 | 3
